The list shows only some results of the screen, not a fair sample: it gathers some chemical classes. Not every dose and run of a compound is shown. T/C: endpoint of the treated group in % of that of the vehicle group. Some entries give survivors of the animals treated and no T/C: the source files T/C as zero there, which appears to mark a toxic dose or a test without result, not a measured value. Survivors were counted at the toxicity check, usually on the fifth day, unless a day is given; later deaths do not show. Schedule codes are those of the source, taken here to give the interval after Q, in days (D) or hours (H), and the number of doses after X. Where survival is the endpoint, the PubChem record calls one and a half times the control and up active, and a quarter to a half above the control has no call in these data; cut-offs in other NCI protocols can differ. Some T/C values carry the count of animals alive at the toxicity check (mostly the fifth day); where neither a count nor a note follows, no animal had died by that day.

This test has as its system mice, LPC-1 plasma cell tumor ip, median survival T/C. Nature of the test: NCI In Vivo Anticancer Drug Screen. Data for tumor model Lieberman Plasma Cell No. 1 (LPC-1) (intraperitoneal) in unknown mice. The settings on record: T/C endpoint: median survival time, higher T/C = longer survival. As for the experimental part: The antitumor activity of compounds was measured in mice bearing transplantable tumors. Survival or tumor size were measured and the results are expressed as the measurement made in the treated group (T) divided by the measurement made in the vehicle treated control group (C). The tumor model used in this assay is Lieberman Plasma Cell No. 1 (LPC-1) (intraperitoneal) in unknown mice

Take `NC(Cc1ccc(N(CCF)CCCl)cc1)C(=O)O` (stereo unspecified): the T/C is 146 % of control [6 of 8 alive] (dose: 10.0 mg/kg/injection, schedule: Q01DX028 (sc), vehicle: saline); 116 % of control [7 of 8 alive] (dose: 20.0 mg/kg/injection, schedule: Q01DX028 (sc), vehicle: saline); 113 % of control [7 of 8 alive] (dose: 80.0 mg/kg/injection, schedule: Q01DX028 (sc), vehicle: saline). In addition, the survivor count (dose: 40.0 mg/kg/injection, schedule: Q01DX028 (sc), vehicle: saline) is 5 of 8.

As to `O=P1(N(CCCl)CCCl)OCC2CCCN21` (stereo unspecified), the T/C by setting is: (dose: 31.25 mg/kg/injection, schedule: Q01DX010 (sc), vehicle: saline) 111 % of control; (dose: 62.5 mg/kg/injection, schedule: Q01DX010 (sc), vehicle: saline) 104 % of control [9 of 10 alive]; (dose: 125.0 mg/kg/injection, schedule: Q01DX010 (sc), vehicle: saline) 102 % of control [8 of 10 alive]; (dose: 250.0 mg/kg/injection, schedule: Q01DX010 (sc), vehicle: saline) 97 % of control [9 of 10 alive].

Turning to `CC[C@@H](C)[C@@H]1NC(=O)/C(=C(\C)O)C1=O.c1ccc(CNCCNCc2ccccc2)cc1`, the T/C (dose: 6.3 mg/kg/injection, schedule: Q01DX028 (sc), vehicle: saline) is 95 % of control [8 of 12 alive]. The survivor count runs as follows: (dose: 12.5 mg/kg/injection, schedule: Q01DX028 (sc), vehicle: saline) 5 of 12; (dose: 25.0 mg/kg/injection, schedule: Q01DX028 (sc), vehicle: saline) 6 of 12; (dose: 50.0 mg/kg/injection, schedule: Q01DX028 (sc), vehicle: saline) 2 of 12.

Take `CC(Cl)CN(CC(C)Cl)C(=O)OCC(N)C(=O)O` (stereo unspecified): the T/C (dose: 67.0 mg/kg/injection, schedule: Q01DX028 (sc), vehicle: carboxymethylcellulose (CMC)) was 92 % of control [8 of 10 alive]; the T/C (dose: 125.0 mg/kg/injection, schedule: Q01DX028 (sc), vehicle: carboxymethylcellulose (CMC)) is 107 % of control [9 of 10 alive]; the T/C (dose: 250.0 mg/kg/injection, schedule: Q01DX028 (sc), vehicle: carboxymethylcellulose (CMC)) is 100 % of control; the T/C (dose: 500.0 mg/kg/injection, schedule: Q01DX028 (sc), vehicle: carboxymethylcellulose (CMC)) is 97 % of control [7 of 10 alive].
